# From PMC8946217
# Sequences of proteins named here, by UniProt entry; tags and fusion partners are left off.
# UniProt Q04759: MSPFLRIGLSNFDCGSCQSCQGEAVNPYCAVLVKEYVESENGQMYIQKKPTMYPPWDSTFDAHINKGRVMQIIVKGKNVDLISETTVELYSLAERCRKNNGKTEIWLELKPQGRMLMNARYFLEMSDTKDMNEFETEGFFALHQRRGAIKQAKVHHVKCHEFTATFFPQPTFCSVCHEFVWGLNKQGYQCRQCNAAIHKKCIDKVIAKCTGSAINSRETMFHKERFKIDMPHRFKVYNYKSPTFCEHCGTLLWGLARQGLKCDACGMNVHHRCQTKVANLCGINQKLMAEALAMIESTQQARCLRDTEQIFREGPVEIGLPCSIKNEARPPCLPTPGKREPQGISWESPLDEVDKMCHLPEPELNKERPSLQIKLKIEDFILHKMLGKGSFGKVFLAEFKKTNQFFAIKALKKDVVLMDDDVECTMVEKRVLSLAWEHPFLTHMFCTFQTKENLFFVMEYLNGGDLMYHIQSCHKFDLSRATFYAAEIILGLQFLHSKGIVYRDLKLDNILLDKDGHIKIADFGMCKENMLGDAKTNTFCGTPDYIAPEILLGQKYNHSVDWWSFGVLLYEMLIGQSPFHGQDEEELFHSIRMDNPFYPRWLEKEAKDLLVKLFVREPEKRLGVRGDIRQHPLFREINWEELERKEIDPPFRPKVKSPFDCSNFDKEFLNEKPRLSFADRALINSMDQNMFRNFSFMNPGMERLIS
# Results are given in words; binding and its absence hold for the method and conditions named. For part of these data: Binding seen in cells or lysates may run through a third protein. Some binding calls cover weakened binding; strength is not graded here.
# Assays:
# [1] = target: T1, ZEB1, endogenous in CD8+ T cells (human (endogenous in patients' CD8+ T cells)) (UniProt P37275); assay: proximity ligation; Duolink PLA (anti-mouse PLUS, anti-rabbit MINUS probes) with primary antibodies to PKC-θ-Thr538p and ZEB1; fixed, permeabilised PD-1+/CD8+ T cells from immunotherapy-resistant melanoma patients
# T1 sequence: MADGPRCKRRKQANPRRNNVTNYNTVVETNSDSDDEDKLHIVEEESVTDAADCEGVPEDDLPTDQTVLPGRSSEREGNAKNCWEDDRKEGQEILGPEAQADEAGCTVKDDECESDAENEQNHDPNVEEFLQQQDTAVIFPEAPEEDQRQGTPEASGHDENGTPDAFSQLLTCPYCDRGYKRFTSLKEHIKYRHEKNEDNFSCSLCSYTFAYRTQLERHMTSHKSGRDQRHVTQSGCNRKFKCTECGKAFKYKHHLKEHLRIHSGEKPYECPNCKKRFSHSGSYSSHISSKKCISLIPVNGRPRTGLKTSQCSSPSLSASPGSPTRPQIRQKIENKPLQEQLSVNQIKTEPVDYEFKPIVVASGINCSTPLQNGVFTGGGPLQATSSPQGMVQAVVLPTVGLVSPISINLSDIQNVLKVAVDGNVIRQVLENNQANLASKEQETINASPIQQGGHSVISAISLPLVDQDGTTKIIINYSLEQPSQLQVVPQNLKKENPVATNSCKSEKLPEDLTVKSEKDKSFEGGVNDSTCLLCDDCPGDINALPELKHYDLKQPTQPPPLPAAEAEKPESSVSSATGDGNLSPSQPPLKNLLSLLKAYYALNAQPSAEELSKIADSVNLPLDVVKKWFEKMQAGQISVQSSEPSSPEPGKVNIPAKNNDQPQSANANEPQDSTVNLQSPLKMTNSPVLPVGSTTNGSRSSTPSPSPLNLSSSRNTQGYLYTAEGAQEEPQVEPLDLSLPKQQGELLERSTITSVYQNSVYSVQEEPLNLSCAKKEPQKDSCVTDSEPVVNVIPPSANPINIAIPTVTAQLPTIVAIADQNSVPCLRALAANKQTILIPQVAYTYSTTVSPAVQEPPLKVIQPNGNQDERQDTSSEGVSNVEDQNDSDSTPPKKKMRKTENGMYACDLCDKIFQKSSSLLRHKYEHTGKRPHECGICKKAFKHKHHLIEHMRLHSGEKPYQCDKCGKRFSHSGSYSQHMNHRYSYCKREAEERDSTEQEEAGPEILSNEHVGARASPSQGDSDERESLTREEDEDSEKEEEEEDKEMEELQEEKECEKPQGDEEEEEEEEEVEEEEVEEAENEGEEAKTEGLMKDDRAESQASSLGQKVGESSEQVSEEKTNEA
# [2] = target: T1, ZEB1, endogenous in CD8+ T cells (human (endogenous in patients' CD8+ T cells)); assay: condition: only in PD-1+/CD8+ T cells of immunotherapy-responsive patients; proximity ligation; Duolink PLA (anti-mouse PLUS, anti-rabbit MINUS probes) with primary antibodies to PKC-θ-Thr538p and ZEB1; fixed, permeabilised PD-1+/CD8+ T cells from immunotherapy-responsive melanoma patients
# [3] = target: His6-PKC-θ (protein kinase C theta) (human) (UniProt Q04759); assay: AlphaScreen or HTRF; about 30 nM His6-PKC-θ and increasing concentrations of biotinylated GST-importins; in triplicate; three parameter sigmoidal curves fitted; quenched values in the hooking zone excluded; both purified
binding [1],binding [2],binding [3],Substance
binds,no binding,,"PKC-θ phosphorylated at threonine 538, endogenous in CD8+ T cells (from UniProt Q04759 1-706) (enzyme)"
,,binds weakly,biotinylated GST-importin β1 (from UniProt P70168 1-876)
